Source: PubChem BioAssay AID743255 (National Center for Advancing Translational Sciences (NCATS), 2014)
In all, about 390,000 compounds went through this assay and about 910 (0.23%) were called active. This list was built around the results that the source calls inconclusive (neither active nor inactive); the mix of calls is not that of the screen. The call rests on the fitted dose curve; in most records, active means well fitted inhibition curve with a large enough effect; inconclusive means small, poorly fitted or top-dose-only effect; inactive means no such curve, though single readings can be large or run the other way. Potencies of inconclusive entries are doubtful fits and often do not repeat.

Protein sequences, listed by entry. Tags and fused reporters are not part of them. Lines headed by an entry give the natural chain unless they say otherwise; changes in a name come on top.
UniProt O94782: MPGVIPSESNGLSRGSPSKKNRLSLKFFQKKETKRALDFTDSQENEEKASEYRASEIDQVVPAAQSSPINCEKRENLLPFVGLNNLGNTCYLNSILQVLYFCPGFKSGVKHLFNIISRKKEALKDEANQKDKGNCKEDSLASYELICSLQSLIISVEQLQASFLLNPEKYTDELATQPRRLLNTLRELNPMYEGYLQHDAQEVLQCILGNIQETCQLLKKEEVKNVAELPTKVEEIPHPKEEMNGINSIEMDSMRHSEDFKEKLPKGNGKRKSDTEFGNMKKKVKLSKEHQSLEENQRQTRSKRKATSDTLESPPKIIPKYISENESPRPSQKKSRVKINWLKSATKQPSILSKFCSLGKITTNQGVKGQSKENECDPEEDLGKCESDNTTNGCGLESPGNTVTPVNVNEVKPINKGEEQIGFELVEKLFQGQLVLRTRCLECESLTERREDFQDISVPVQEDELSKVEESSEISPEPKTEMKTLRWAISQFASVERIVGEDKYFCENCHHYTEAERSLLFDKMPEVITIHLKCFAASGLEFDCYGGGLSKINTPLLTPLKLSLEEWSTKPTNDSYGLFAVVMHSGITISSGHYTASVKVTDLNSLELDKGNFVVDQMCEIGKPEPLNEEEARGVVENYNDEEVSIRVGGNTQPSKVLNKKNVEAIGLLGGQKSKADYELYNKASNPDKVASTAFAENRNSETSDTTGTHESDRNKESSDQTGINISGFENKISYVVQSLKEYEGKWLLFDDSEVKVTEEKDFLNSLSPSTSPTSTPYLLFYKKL

molecular target: Ubiquitin carboxyl-terminal hydrolase 1 (Homo sapiens) (UniProt O94782); assay: Inhibitors of USP1/UAF1: Primary Screen; conditions: recombinant USP1/UAF1, Ub-Rhodamine cleavage fluorescence; activity change, negative = inhibition: at 57.1 µM (top of the series); further: nearly all actives have a fitted effect of over 60% in size
How it was run: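 USP1/UAF1 complex (1 nM) preincubated 15 min at room temperature with compound, then Ub-Rho substrate (150 nM final) added. Kinetic fluorescence at 480/540 nm over 6 reads at 60 s intervals; 50 mM HEPES pH 7.8, 0.5 mM EDTA, 0.1 mg/ml BSA, 1 mM TCEP, 0.01% Tween-20.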
On the % scale 0 is the no-effect control and ±100 the full control effect; potency means the concentration at half of the fitted maximal effect.

Structure (SMILES) | Potency | activity change, negative = inhibition
C[C@H](CO)N1C[C@H](C)[C@@H](CN(C)Cc2ccc(C(=O)O)cc2)Oc2c(NC(=O)C3CC3)cccc2C1=O | inconclusive: 0.282 µM [inhibitor, full curve, poor fit] | 
CCSc1nc(NCCN(C)C)c2c3c(sc2n1)COC(C)(CC)C3 (centres undefined) | inconclusive: 4.47 µM [inhibitor, single point] | 
c1ccc(-c2ccnc3nc(N4CCN(c5ccccc5)CC4)nn23)cc1 |  | inactive: -18.4%
CN(Cc1nccs1)C(=O)CC1C(=O)NCCN1Cc1ccc(-c2ccccc2)cc1 (centres undefined) |  | inactive: -23.8%
CCN1CCN(C(=O)c2cc3c(-c4ccc(Cl)cc4)nn(C)c3s2)CC1 | inconclusive: 1.26 µM [inhibitor, full curve, poor fit] | 
CCCOc1ccc(CN(C(=O)Cc2coc3ccc(CC)cc23)C2CCS(=O)(=O)C2)cc1 (centres undefined) | inconclusive: 50.1 µM [inhibitor, single point] | 
CCOc1ccc(NC(=O)C(=O)c2cc(C)n(-c3cc(C)cc(C)c3)c2C)cc1 |  | inactive: -5.88%
COc1ccc(CCNC(=O)c2ccc3c(c2)CCN3S(=O)(=O)c2ccc(C)cc2)cc1 | inconclusive: 8.91 µM [inhibitor, partial curve, poor fit] | 
COc1ccc(NC(=O)C2C(=O)N(C)C3(C)CC2c2ccccc2O3)cc1 (centres undefined) |  | inactive: -22.9%
Cc1ccc(/C=C2\SC(=S)N(C3CCS(=O)(=O)C3)C2=O)o1 (centres undefined) | inconclusive: 28.2 µM [inhibitor, partial curve] | 
O=C(c1ccc(S(=O)(=O)N2CCCCC2)cc1)N1CCN=C1SCc1cccnc1 | inconclusive: 0.398 µM [inhibitor, full curve, poor fit] | 
Cc1cc(N2CCN(c3nc4ccccc4s3)CC2)n2ncnc2n1 |  | inactive: -0.706%
CC(=O)N1c2ccc(S(=O)(=O)N3CCC(C(=O)NC4CCCCC4C)CC3)cc2CC1C (centres undefined) | inconclusive: 31.6 µM [inhibitor, single point] | 
CCCCC1=CC2=CC(=O)C(C)(OC(=O)CC)C(=O)C2=CN1CCc1ccc(Br)cc1 (centres undefined) | inconclusive: 0.112 µM [inhibitor, full curve, poor fit] | 
O=S(=O)(c1ccc(=S)[nH]c1)N1CCCC1 | inconclusive: 17.8 µM [inhibitor, partial curve] | 
Oc1[nH]c2ccccc2c1N=Nc1ccccc1 | active: 28.2 µM | 
COc1cc(C(F)(F)F)c(C(=O)N(C)Cc2ccc(Cl)c(Cl)c2)cn1 | inconclusive: 50.1 µM [inhibitor, partial curve, poor fit] | 
CCC(C)NC(=O)CSc1nc2n[nH]c(C)c2c(=N)n1-c1cc(Cl)ccc1C (centres undefined) |  | inactive: 12.6%
O=C(C1CCCN(S(=O)(=O)c2cccc3nsnc23)C1)N1CCN(c2ccccc2F)CC1 (centres undefined) | inconclusive: 7.94 µM [inhibitor, single point] | 
Cc1ccc(-c2csc(NC(=O)C3=COCCO3)n2)cc1C | inconclusive: 25.1 µM [inhibitor, single point] | 

Entries of single compounds as entered above.
O=C(C1CCCN(S(=O)(=O)c2cccc3nsnc23)C1)N1CCN(c2ccccc2F)CC1 (centres undefined) as listed: Potency: inconclusive: 7.94 µM [inhibitor, single point]
CCC(C)NC(=O)CSc1nc2n[nH]c(C)c2c(=N)n1-c1cc(Cl)ccc1C (centres undefined) as listed: activity change, negative = inhibition: inactive: 12.6%

(continued)

Structure (SMILES) | Potency | activity change, negative = inhibition
COc1ccc(-c2ccc3c(c2)S(=O)(=O)c2cccc(C(=O)NCCOc4ccccc4)c2C3=O)cc1OC | inconclusive: 39.8 µM [inhibitor, partial curve, poor fit] | 
O=C(COc1ccccc1)OCc1cc(=O)n2nc(C3CC3)sc2n1 | inconclusive: 56.2 µM [inhibitor, partial curve, poor fit] | 
COc1cc(-c2nnc(SCCOc3ccc(Cl)cc3)o2)cc(OC)c1OC | inconclusive: 50.1 µM [inhibitor, partial curve, poor fit] | 
CC(C)CCN(Cc1ccco1)C(=O)c1cc2c(s1)-c1ccccc1OC2 | inconclusive: 0.794 µM [inhibitor, full curve, poor fit] | 
O=C(Nc1ccc(OC(F)(F)F)cc1)c1cc(S(=O)(=O)N2CCCCC2)ccc1N1CCOCC1 | inconclusive: 0.398 µM [inhibitor, full curve] | 
O=C(O)Cn1cnc2ccccc2c1=O | inconclusive: 2.51 µM [inhibitor, full curve, poor fit] | 
CCc1ccc2oc(C(=O)Nc3cccc(Cl)c3C)cc(=O)c2c1 | inconclusive: 0.708 µM [inhibitor, full curve, poor fit] | 
O=C(CCn1c(=O)sc2ccccc21)NCc1cccs1 | inconclusive: 17.8 µM [inhibitor, partial curve] | 
CCCN1CCC(=O)N(CCOc2ccccc2)CC1 |  | inactive: -26.7%
COc1ccccc1Oc1ccc(-c2cnc3ccccc3n2)cc1[N+](=O)[O-] | inconclusive: 7.08 µM [inhibitor, full curve, poor fit] | 
COc1ccccc1N1CCN(C(=O)C2CCN(S(=O)(=O)Cc3ccccc3)CC2)CC1 | inconclusive: 6.31 µM [inhibitor, full curve, poor fit] | 
Cc1cc2c(cc1NC(=O)c1ccccc1C)n(C)c(=O)c(=O)n2C | inconclusive: 39.8 µM [inhibitor, partial curve] | 
C=CCN(CC=C)C(=O)COC(=O)c1ccc(Sc2ncn[nH]2)c([N+](=O)[O-])c1 | inconclusive: 7.08 µM [inhibitor, partial curve, poor fit] | 
Cc1ccc2[nH]c(C)c(/C=C/c3cc[n+](C)cc3)c2c1 | inconclusive: 31.6 µM [inhibitor, partial curve] | 
O=C1c2ccccc2C(=O)N1CCC#C/C=C1\c2ccccc2C(=O)N1c1ccccc1 | inconclusive: 44.7 µM [inhibitor, partial curve] | 
Cc1ccc(C(=O)Nc2cc(-c3nc4ncccc4o3)ccc2C)c(C)c1 | inconclusive: 25.1 µM [inhibitor, single point] | 
Cc1ccc(C(=O)N2CCc3cc(CNS(=O)(=O)c4cccs4)ccc32)cc1 | inconclusive: 5.62 µM [inhibitor, full curve, poor fit] | 
CCOC(=O)N1CCN(C2=C(NS(=O)(=O)c3ccc(NC(C)=O)cc3)C(=O)c3ccccc3C2=O)CC1 | inconclusive: 28.2 µM [inhibitor, partial curve] | 
CCOC(=O)c1c(C)oc2ncnc(Nc3ccc(OC)cc3OC)c12 | inconclusive: 3.55 µM [inhibitor, full curve] | 
